Our source for the binding values is US20080050370A1.

Amino acid sequences for entries named in this document (tags omitted). Residues count along the entry.
UniProt P36941, residues 31-227: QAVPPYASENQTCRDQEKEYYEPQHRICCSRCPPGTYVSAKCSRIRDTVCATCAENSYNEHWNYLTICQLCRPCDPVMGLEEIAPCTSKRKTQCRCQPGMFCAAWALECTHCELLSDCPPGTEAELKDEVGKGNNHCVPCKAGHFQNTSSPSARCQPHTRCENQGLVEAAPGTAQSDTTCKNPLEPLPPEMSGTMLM

Assay [1] addresses sLTβR (UniProt P36941). The assay can be described thus: SPR (Biacore).
The target in assay [2] is LTβR-Ig (UniProt P36941). Kind of assay: thermal challenge assay: E. coli supernatant heated at the temperature on the x axis and cleared, remaining binding to plate-coated LTβR-Ig read by DELFIA (Eu-anti-His6).
Assay [3] concerns the target LTβR-Ig (UniProt P36941). Kind of assay: Thermal challenge of E. coli supernatant, then DELFIA on plate-coated LTβR-Ig with Eu-labelled anti-His6 detection. The x axis is the challenge temperature.

No constants are given. Whether binding was seen depends on the method and setting. Some binding calls cover weakened binding; strength is not graded here.

B1: BHA10 VH44:VL100/(Gly4Ser)4 scFv (scFv)
scFv: QVQLVQSGAEVKKPGSSVKVSCKASGYTFTTYYLHWVRQAPGQCLEWMGWIYPGNVHAQYNEKFKGRVTITADKSTSTAYMELSSLRSEDTAVYYCARSWEGFPYWGQGTTVTVSSGGGGSGGGGSGGGGSGGGGSDIQMTQSPSSLSASVGDRVTITCKASQNVGINVAWYQQKPGKAPKSLISSASYRYSGVPSRFSGSGSGTDFTLTISSLQPEDFATYFCQQYDTYPFTFGCGTKVEIK
For B1, the binding entry in assay [1] and in assay [2] was “binds” throughout.

B2: BHA10 scFv VH-P101D, (G4S)4 linker (scFv, name in Kabat numbering)
scFv: QVQLVQSGAEVKKPGSSVKVSCKASGYTFTTYYLHWVRQAPGQGLEWMGWIYPGNVHAQYNEKFKGRVTITADKSTSTAYMELSSLRSEDTAVYYCARSWEGFDYWGQGTTVTVSSGGGGSGGGGSGGGGSGGGGSDIQMTQSPSSLSASVGDRVTITCKASQNVGINVAWYQQKPGKAPKSLISSASYRYSGVPSRFSGSGSGTDFTLTISSLQPEDFATYFCQQYDTYPFTFGQGTKVEIK
As to B2, the binding entry in assay [3] is recorded as “binds”.

B3: BHA10 scFv VL-S46L, (G4S)4 linker (scFv)
scFv: QVQLVQSGAEVKKPGSSVKVSCKASGYTFTTYYLHWVRQAPGQGLEWMGWIYPGNVHAQYNEKFKGRVTITADKSTSTAYMELSSLRSEDTAVYYCARSWEGFPYWGQGTTVTVSSGGGGSGGGGSGGGGSGGGGSDIQMTQSPSSLSASVGDRVTITCKASQNVGINVAWYQQKPGKAPKLLISSASYRYSGVPSRFSGSGSGTDFTLTISSLQPEDFATYFCQQYDTYPFTFGQGTKVEIKDDDDKSFLEQKLISEEDLNSAVDHHHHHH
B3: the binding result in assay [3] and in assay [2] was “binds” in each case.

B4: BHA10 scFv VH-V55G, (G4S)4 linker (scFv)
scFv: QVQLVQSGAEVKKPGSSVKVSCKASGYTFTTYYLHWVRQAPGQGLEWMGWIYPGNGHAQYNEKFKGRVTITADKSTSTAYMELSSLRSEDTAVYYCARSWEGFPYWGQGTTVTVSSGGGGSGGGGSGGGGSGGGGSDIQMTQSPSSLSASVGDRVTITCKASQNVGINVAWYQQKPGKAPKSLISSASYRYSGVPSRFSGSGSGTDFTLTISSLQPEDFATYFCQQYDTYPFTFGQGTKVEIKDDDDKSFLEQKLISEEDLNSAVDHHHHHH
In the case of B4, in assay [3], the binding result was “binds”.

B5: BHA10 VH44/VL100 scFv (scFv)
scFv, VH-(Gly4Ser)3-VL: QVQLVQSGAEVKKPGSSVKVSCKASGYTFTTYYLHWVRQAPGQCLEWMGWIYPGNVHAQYNEKFKGRVTITADKSTSTAYMELSSLRSEDTAVYYCARSWEGFPYWGQGTTVTVSSGGGGSGGGGSGGGGSDIQMTQSPSSLSASVGDRVTITCKASQNVGINVAWYQQKPGKAPKSLISSASYRYSGVPSRFSGSGSGTDFTLTISSLQPEDFATYFCQQYDTYPFTFGCGTKVEIK
modifications: disulfide bond between VH44 Cys and VL100 Cys (Kabat)
As for B5, in assay [2], the binding result is on record as “binds”.
